From the supplement of paper PMC4604168 (melanoma cell lines)
The list shows a part of the results. Repeats are few or missing, and single values can be far off.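 The apoptosis fraction was the count of cleaved-PARP antibody-stained nuclei relative to all DNA-stained nuclei, imaged in 1,536-well plates. Screening doses were set so most cells survived, and baseline and induced cleaved-PARP levels vary greatly across cell lines.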

Legend:
Assay in all cases: cleaved PARP positive nuclei fraction relative to DMSO control; melanoma cells; higher = more apoptosis
Settings in all cases: library dose: low library concentration; 72 h
A101D = system: A101D
A2058 = system: A2058
A375 = system: A375
C32 = system: C32
CBRC008 = system: CBRC008 (line from a melanoma biopsy)
CBRC013 = system: CBRC013 (line from a melanoma biopsy)
CBRC014 = system: CBRC014 (line from a melanoma biopsy)
CBRC016 = system: CBRC016 (line from a melanoma biopsy)
CBRC017 = system: CBRC017 (line from a melanoma biopsy)
COLO792 = system: COLO792
COLO800 = system: COLO800
COLO829 = system: COLO829
G361 = system: G361
IPC-298 = system: IPC-298
IST-MEL1 = system: IST-MEL1
LOXIMVI = system: LOXIMVI
MEL-HO = system: MEL-HO
501Mel = system: 501Mel
LB2518-MEL = system: LB2518-MEL
CBRC034 = system: CBRC034 (line from a melanoma biopsy)

Compound | cleaved PARP positive nuclei fraction (A101D) [%] | cleaved PARP positive nuclei fraction (A2058) [%] | cleaved PARP positive nuclei fraction (A375) [%] | cleaved PARP positive nuclei fraction (C32) [%] | cleaved PARP positive nuclei fraction (CBRC008) [%] | cleaved PARP positive nuclei fraction (CBRC013) [%] | cleaved PARP positive nuclei fraction (CBRC014) [%] | cleaved PARP positive nuclei fraction (CBRC016) [%] | cleaved PARP positive nuclei fraction (CBRC017) [%] | cleaved PARP positive nuclei fraction (COLO792) [%] | cleaved PARP positive nuclei fraction (COLO800) [%] | cleaved PARP positive nuclei fraction (COLO829) [%] | cleaved PARP positive nuclei fraction (G361) [%] | cleaved PARP positive nuclei fraction (IPC-298) [%] | cleaved PARP positive nuclei fraction (IST-MEL1) [%] | cleaved PARP positive nuclei fraction (LOXIMVI) [%] | cleaved PARP positive nuclei fraction (MEL-HO) [%] | cleaved PARP positive nuclei fraction (501Mel) [%] | cleaved PARP positive nuclei fraction (LB2518-MEL) [%] | cleaved PARP positive nuclei fraction (CBRC034) [%]
CC(C)C[C@H](NC(=O)[C@H](Cc1ccccc1)NC(=O)c1cnccn1)B(O)O [Bortezomib] + Cn1cncc1[C@@](N)(c1ccc(Cl)cc1)c1ccc2c(c1)c(-c1cccc(Cl)c1)cc(=O)n2C [tipifarnib] (first compound 0.001 µM, partner dose 0.01 µM) | 255 | 102 | 182 | 43.3 | 917 | 86.6 | 187 | 413 | 503 | 169 | 85.9 | 185 | 1790 | 275 | 138 | 32.3 | 152 | – | – | –
CCCS(=O)(=O)Nc1ccc(F)c(C(=O)c2c[nH]c3ncc(Cl)cc23)c1F + COc1cc2c(Oc3ccc4[nH]c(C)cc4c3F)ncnc2cc1OCCCN1CCCC1 [cediranib] (first compound 0.08 µM, partner dose 0.4 µM) | 88.9 | 124 | 147 | 103 | 120 | 102 | 90.5 | 85.1 | 92.3 | 71.3 | 147 | 130 | 86.3 | 109 | 55.4 | 201 | 74.1 | – | – | –
C=C(c1ccc(C(=O)O)cc1)c1cc2c(cc1C)C(C)(C)CCC2(C)C [Bexarotene] + C[C@@H]1CCN(C(=O)CC#N)C[C@@H]1N(C)c1ncnc2[nH]ccc12 [CP690550] (first compound 2 µM, partner dose 1 µM) | 88.6 | 111 | 185 | 88.5 | 289 | 136 | 106 | 370 | 147 | 83.9 | 110 | 71 | 67.7 | 92.8 | 99.8 | 43.9 | 34.2 | – | – | –
Cn1c(=O)n(-c2ccc(C(C)(C)C#N)cc2)c2c3cc(-c4cnc5ccccc5c4)ccc3ncc21 + O=S(=O)(c1ccccc1)N(CC(F)(F)F)c1ccc(C(O)(C(F)(F)F)C(F)(F)F)cc1 [T0901317] (first compound 0.004 µM, partner dose 1.4 µM) | 18.5 | 61.3 | – | 262 | 152 | – | 351 | 79.4 | 93.1 | 92.8 | 44.6 | 98 | 67.9 | 73.6 | 25.7 | 149 | – | 207 | 35.8 | –
O=C(O)[C@@H]1[O][Sb](=[O])([O][Sb]2(=[O])[O][C@H]([C@H](O)CO)[C@H](O)[C@H](C(=O)O)[O]2)[O][C@H]([C@H](O)CO)[C@@H]1O (stereo partly drawn) [stibogluconate] + COc1cc(N2CCC(N3CCN(C)CC3)CC2)ccc1Nc1ncc(Cl)c(Nc2ccccc2S(=O)(=O)C(C)C)n1 [NVP-TAE684] (first compound 2 µM, partner dose 0.08 µM) | 53.4 | 84.9 | – | 194 | 97.4 | – | 100 | 66.4 | 96.4 | 97.3 | 125 | 56.3 | 137 | 155 | 104 | 175 | – | 33.8 | 39.1 | –
CC(C)C[C@H](NC(=O)[C@H](Cc1ccccc1)NC(=O)c1cnccn1)B(O)O [Bortezomib] + Oc1cc(-c2nc(-c3ccccc3)[nH]c2-c2ccncc2)ccc1Cl [L779450] (first compound 0.001 µM, partner dose 0.2 µM) | 29.8 | 149 | – | 40.5 | 419 | – | 261 | 133 | 148 | 100 | 87.3 | 212 | 1450 | 153 | 225 | 73.4 | – | 155 | 314 | –
Nc1ncn([C@H]2C[C@H](O)[C@@H](CO)O2)c(=O)n1 [decitabine] + Cn1cncc1[C@@](N)(c1ccc(Cl)cc1)c1ccc2c(c1)c(-c1cccc(Cl)c1)cc(=O)n2C [tipifarnib] (first compound 0.1 µM, partner dose 0.01 µM) | 82.6 | 156 | 124 | 74.9 | 170 | 102 | 88 | 37.9 | 133 | 90.3 | 99.5 | 124 | 73.7 | 540 | 309 | 116 | 211 | – | – | –
Nc1nc(F)nc2c1ncn2[C@@H]1O[C@H](CO)[C@@H](O)[C@@H]1O [fludarabine] + O=c1cc(-c2cccc3c2Sc2ccccc2S3)oc(N2CCOCC2)c1 [KU55933] (first compound 0.2 µM, partner dose 1 µM) | 54 | 63.8 | – | 26.9 | 180 | – | 84 | 88.8 | 91.9 | 104 | 129 | 82 | 147 | 67.8 | 51.7 | 41.3 | – | 4270 | 116 | –
O=C(O)[C@@H]1[O][Sb](=[O])([O][Sb]2(=[O])[O][C@H]([C@H](O)CO)[C@H](O)[C@H](C(=O)O)[O]2)[O][C@H]([C@H](O)CO)[C@@H]1O (stereo partly drawn) [stibogluconate] + Cn1cncc1[C@@](N)(c1ccc(Cl)cc1)c1ccc2c(c1)c(-c1cccc(Cl)c1)cc(=O)n2C [tipifarnib] (first compound 2 µM, partner dose 0.01 µM) | 72.5 | 69 | 87.3 | 137 | 115 | 107 | 86.3 | 105 | 145 | 77.6 | 143 | 117 | 74.2 | 49.4 | 105 | 232 | 229 | – | – | –
CN1CCN(c2ccc3nc(-c4c(N)c5c(F)cccc5[nH]c4=O)[nH]c3c2)CC1 [Dovitinib] + CC(C)CCN1c2nc(Nc3cc(F)c(O)c(F)c3)ncc2N(C)C(=O)C1C [BID1870] (first compound 0.1 µM, partner dose 0.2 µM) | 42.6 | 165 | – | 77 | 186 | – | 105 | 113 | 195 | 106 | 76.4 | 120 | 92.5 | 206 | 38 | 350 | – | 144 | 147 | –
CO[C@H]1C[C@@H]2CC[C@@H](C)[C@@](O)(O2)C(=O)C(=O)N2CCCC[C@H]2C(=O)O[C@H]([C@H](C)C[C@@H]2CC[C@@H](OCCO)[C@H](OC)C2)CC(=O)[C@H](C)/C=C(\C)[C@@H](O)[C@@H](OC)C(=O)[C@H](C)C[C@H](C)/C=C/C=C/C=C/1C [everolimus] + Cc1ccc(NC(=O)c2cccc(N(C)C)c2)cc1NC(=O)c1ccc(O)cc1 [ZM336372] (first compound 0.02 µM, partner dose 2 µM) | 50.6 | 185 | 220 | 215 | 368 | 57 | 110 | 167 | 92.6 | 102 | 81.5 | 123 | 165 | 103 | 118 | 66.3 | 117 | – | – | –
CS(=O)(=O)CCNCc1ccc(-c2ccc3ncnc(Nc4ccc(OCc5cccc(F)c5)c(Cl)c4)c3c2)o1 [lapatinib] + CCN(CC)CCCCNc1ncc2cc(-c3cc(OC)cc(OC)c3)c(NC(=O)NC(C)(C)C)nc2n1 [PD173074] (first compound 0.8 µM, partner dose 0.1 µM) | 22.1 | 91.5 | – | 46.1 | 198 | – | 108 | 20.8 | 123 | 224 | 94.3 | 103 | 193 | 95.4 | 91.5 | 28.8 | – | 165 | 252 | –
Cn1c(=O)n(-c2ccc(C(C)(C)C#N)cc2)c2c3cc(-c4cnc5ccccc5c4)ccc3ncc21 + CN(NC(=O)CC(=O)NN(C)C(=S)c1ccccc1)C(=S)c1ccccc1 [STA4783] (first compound 0.004 µM, partner dose 0.006 µM) | 103 | 141 | 1300 | 230 | 826 | 74.6 | 485 | 119 | 143 | 208 | 125 | 72.5 | 137 | 90.8 | 118 | 37.1 | 79.2 | – | – | –
O=C(O)[C@@H]1[O][Sb](=[O])([O][Sb]2(=[O])[O][C@H]([C@H](O)CO)[C@H](O)[C@H](C(=O)O)[O]2)[O][C@H]([C@H](O)CO)[C@@H]1O (stereo partly drawn) [stibogluconate] + Nc1ncn([C@H]2C[C@H](O)[C@@H](CO)O2)c(=O)n1 [decitabine] (first compound 2 µM, partner dose 0.1 µM) | 99.8 | 67.7 | 202 | 77 | 92.3 | – | 96.5 | 51.2 | 120 | 23.3 | 59.9 | 50.4 | 87.2 | 128 | 138 | 85.5 | 71.6 | – | – | 37.1
Cn1c(=O)n(-c2ccc(C(C)(C)C#N)cc2)c2c3cc(-c4cnc5ccccc5c4)ccc3ncc21 + CC(C)(C)c1cnc(CSc2cnc(NC(=O)C3CCNCC3)s2)o1 [SNS-032] (first compound 0.004 µM, partner dose 0.01 µM) | 92.6 | 230 | 82.5 | 98.2 | 111 | 92.9 | 91.9 | 64.9 | 156 | 159 | 92 | 150 | 60.7 | 44.3 | 50.4 | 126 | 166 | – | – | –
O=C(O)c1ccc2c(c1)nc(Nc1cccc(Cl)c1)c1ccncc12 + C=CCn1c(=O)c2cnc(Nc3ccc(N4CCN(C)CC4)cc3)nc2n1-c1cccc(C(C)(C)O)n1 [MK1775] (first compound 0.4 µM, partner dose 0.02 µM) | 216 | 86.1 | 112 | 96.9 | 181 | 126 | 152 | 272 | 137 | 156 | 56.4 | 41.9 | 161 | 98.7 | 72.3 | 64.1 | 71.2 | – | – | –
Nc1ccn([C@@H]2O[C@H](CO)[C@@H](O)C2(F)F)c(=O)n1 [gemcitabine] + O=C(CCCCCCC(=O)Nc1ccccc1)NO [vorinostat] (first compound 0.0004 µM, partner dose 0.08 µM) | 71.9 | 135 | 72.5 | 67.2 | 46.7 | 70.7 | 153 | 230 | 117 | 95.8 | 220 | 104 | 167 | 162 | 181 | 77.5 | 86.7 | – | – | –

For convenience, part of the list above.
Compound | cleaved PARP positive nuclei fraction (A101D) [%] | cleaved PARP positive nuclei fraction (A2058) [%] | cleaved PARP positive nuclei fraction (A375) [%] | cleaved PARP positive nuclei fraction (C32) [%] | cleaved PARP positive nuclei fraction (CBRC008) [%] | cleaved PARP positive nuclei fraction (CBRC013) [%] | cleaved PARP positive nuclei fraction (CBRC014) [%] | cleaved PARP positive nuclei fraction (CBRC016) [%] | cleaved PARP positive nuclei fraction (CBRC017) [%] | cleaved PARP positive nuclei fraction (COLO792) [%] | cleaved PARP positive nuclei fraction (COLO800) [%] | cleaved PARP positive nuclei fraction (COLO829) [%] | cleaved PARP positive nuclei fraction (G361) [%] | cleaved PARP positive nuclei fraction (IPC-298) [%] | cleaved PARP positive nuclei fraction (IST-MEL1) [%] | cleaved PARP positive nuclei fraction (LOXIMVI) [%] | cleaved PARP positive nuclei fraction (MEL-HO) [%] | cleaved PARP positive nuclei fraction (501Mel) [%] | cleaved PARP positive nuclei fraction (LB2518-MEL) [%] | cleaved PARP positive nuclei fraction (CBRC034) [%]
CCCS(=O)(=O)Nc1ccc(F)c(C(=O)c2c[nH]c3ncc(Cl)cc23)c1F + COc1cc2c(Oc3ccc4[nH]c(C)cc4c3F)ncnc2cc1OCCCN1CCCC1 [cediranib] (first compound 0.08 µM, partner dose 0.4 µM) | 88.9 | 124 | 147 | 103 | 120 | 102 | 90.5 | 85.1 | 92.3 | 71.3 | 147 | 130 | 86.3 | 109 | 55.4 | 201 | 74.1 | – | – | –
C=C(c1ccc(C(=O)O)cc1)c1cc2c(cc1C)C(C)(C)CCC2(C)C [Bexarotene] + C[C@@H]1CCN(C(=O)CC#N)C[C@@H]1N(C)c1ncnc2[nH]ccc12 [CP690550] (first compound 2 µM, partner dose 1 µM) | 88.6 | 111 | 185 | 88.5 | 289 | 136 | 106 | 370 | 147 | 83.9 | 110 | 71 | 67.7 | 92.8 | 99.8 | 43.9 | 34.2 | – | – | –
Cn1c(=O)n(-c2ccc(C(C)(C)C#N)cc2)c2c3cc(-c4cnc5ccccc5c4)ccc3ncc21 + O=S(=O)(c1ccccc1)N(CC(F)(F)F)c1ccc(C(O)(C(F)(F)F)C(F)(F)F)cc1 [T0901317] (first compound 0.004 µM, partner dose 1.4 µM) | 18.5 | 61.3 | – | 262 | 152 | – | 351 | 79.4 | 93.1 | 92.8 | 44.6 | 98 | 67.9 | 73.6 | 25.7 | 149 | – | 207 | 35.8 | –
O=C(O)[C@@H]1[O][Sb](=[O])([O][Sb]2(=[O])[O][C@H]([C@H](O)CO)[C@H](O)[C@H](C(=O)O)[O]2)[O][C@H]([C@H](O)CO)[C@@H]1O (stereo partly drawn) [stibogluconate] + COc1cc(N2CCC(N3CCN(C)CC3)CC2)ccc1Nc1ncc(Cl)c(Nc2ccccc2S(=O)(=O)C(C)C)n1 [NVP-TAE684] (first compound 2 µM, partner dose 0.08 µM) | 53.4 | 84.9 | – | 194 | 97.4 | – | 100 | 66.4 | 96.4 | 97.3 | 125 | 56.3 | 137 | 155 | 104 | 175 | – | 33.8 | 39.1 | –
